# Experimental data: PubChem BioAssay (NCATS)
# Where “and” joins values, the source holds several entries; their conditions need not be identical. Identical values can stand only once. This is one part of the list. The main result of the screen is listed elsewhere. These columns were measured beside it and carry no call. The list favours compounds with an active or inconclusive main result. For part of these data: Words in brackets tell the shape of the fitted curve; partial curves, single points and poor fits give uncertain potencies.
# Experiments:
# [1] = qHTS Assay for Inhibitors of PDE-IV (AID 607); conditions: HEK293 ACTOne CNG channel cells, membrane potential fluorescence; measured here: parental cell counter-screen
# Method in brief: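 ACTOne HEK293 cells carry a modified cAMP-gated CNG channel and express endogenous PDE4; plated 1000 cells/well, compounds up to 22.9 uM final. Membrane-potential dye fluorescence (ex 535/em 590) was read; parental cells received 10 uM forskolin + 100 uM RO 20-1724.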
# [2] = qHTS Assay for Lipid Storage Modulators (AID 1519); conditions: Drosophila S3 cells, BODIPY lipid droplet/cell ratio, laser cytometry, cells loaded with oleic acid
# Method in brief: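 Cells seeded at 5,000 per well were treated with compounds over a concentration series and loaded with oleic acid (400 uM, as added). Lipid droplet fluorescence (488 nm excitation, 500-530 nm channel) was read by laser-scanning cytometry and normalized to 20 uM Triacsin C.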
# [3] = qHTS for identification of novel therapeutic agents for treatment of microphthalmiaassociated transcription factor (MiT) renal cell carcinoma (RCC) (AID 1963991); conditions: CellTiter-Glo, 48 h; for z-score: stronger effect = lower value
# Method in brief: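 Three TFE3-fusion RCC cell lines (UOK109, UOK124, UOK145), 500 cells/well, were exposed to the 1912-compound MIPE 4.0 library for 48 hours at 37 C. Viability was read by CellTiter-Glo luminescence, normalised to DMSO (100%) and empty wells (0%), with 11-concentration curve fits.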
# [4] = qHTS Assay for Modulators of Human Peripheral Myelin Protein 22 (PMP22) Expression/Activity (AID 1967); conditions: Cell-based PMP22 reporter, dual-color luciferase ratio
# Method in brief: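 MSC80 mouse Schwann cells stably carrying Pmp22 promoter–green click beetle luciferase plus EF-alpha–red luciferase control were dosed for 24h at 37 °C. Dual-colour luminescence was filter-overlap corrected; %Activity came from green/red ratio versus untreated cells.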
# [5] = qHTS Validation Assay to Find Inhibitors of Chronic Active B-Cell Receptor Signaling (AID 485345); conditions: ABC-DLBCL cells, chronic BCR signaling reporter; measured here: CBR control luciferase (viability counter)
# Method in brief: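 TMD8 ABC-DLBCL cells stably carrying doxycycline-inducible IkappaBalpha–green luciferase fusion plus unfused red luciferase; compounds 46 uM to 3 nM, 4 h at 37C with doxycycline. Corrected green/red luminescence ratio normalized to 10 uM MG-132 and basal cell wells; curves fitted.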
# [6] = Nrf2 qHTS screen for inhibitors: Validation (AID 493153); conditions: A549 ARE-Fluc reporter, 18-24 h; AC50: CellTiter-Fluor fluorescence read, measured here: cytotoxicity CellTiter-Fluor AC50; viability change: measured here: cytotoxicity max response
# Method in brief: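 Concentration-response on A549 ARE_Fluc reporter cells exposed 18-24 h at 37 C, 5% CO2. Cytotoxicity read first by CellTiter-Fluor fluorescence (Ex 405/Em 525), then Nrf2 inhibition by BugLite luminescence after 15 min.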
# [7] = measured here: cell count channel max response
# [8] = measured here: cell number channel AC50
# [9] = measured here: lipid (BODIPY) channel AC50
# [10] = measured here: lipid channel max response
# [11] = TFE3-RCC UOK109 viability, measured here: UOK109 Z-AUC
# [12] = TFE3-RCC viability, measured here: UOK124 Z-AUC
# [13] = TFE3-RCC viability, measured here: UOK145 Z-AUC
# [14] = TFE3-RCC viability, measured here: UOK145 cell viability
# [15] = measured here: red reporter channel AC50, EF-alpha promoter control reporter in MSC80 mouse Schwann cells
# [16] = measured here: green reporter channel AC50, mouse Pmp22 promoter in mouse Schwann cells
# [17] = TFE3-RCC viability, measured here: UOK124 cell viability
compound,measurement,setting,value
CCCCC(C=O)NC(=O)C(CC(C)C)NC(=O)OCc1ccccc1 (stereo not drawn),AC50,[1],"12.6 µM [rising, single point]"
same,max response,[2]; [7],42.3%
same,AC50,[2]; [8],"12.6 µM [rising, full curve, poor fit]"
same,AC50,[2]; [9],"14.1 µM [rising, full curve, poor fit]"
same,max response,[2]; [10],46.2%
same,z-score,[3]; [11],0.241
same,z-score,[3]; [12],0.269
same,z-score,[3]; [13],-0.106
same,AC50,[3]; [14],"3.72 µM [falling, partial curve, poor fit]"
N[C@H](C(=O)O)[C@H]1C[C@@H]1C(=O)O,max response,[2]; [7],38.1%
same,AC50,[2]; [8],"0.708 µM [falling, full curve, poor fit]"
same,AC50,[2]; [9],"0.708 µM [falling, full curve, poor fit]"
same,max response,[2]; [10],36.2%
same,AC50,[4]; [15],"84.9 µM [falling, single point]"
NNCCc1ccccc1,max response,[2]; [7],-17.3%
same,AC50,[2]; [8],"1.58 µM [falling, full curve, poor fit]"
same,AC50,[2]; [9],"1.58 µM [falling, full curve, poor fit]"
same,max response,[2]; [10],-13.5%
same,AC50,[4]; [15],"95.3 µM [falling, single point]"
same,AC50,[5],"29.1 µM [falling, single point]"
same,z-score,[3]; [11],-0.18
same,z-score,[3]; [12],0.83
same,z-score,[3]; [13],-0.121
same,AC50,[3]; [14],"14.8 µM [falling, partial curve]"
Nc1ccc(N2C(=O)c3ccccc3C2=O)c(Cl)c1,max response,[2]; [7],69.5%
same,AC50,[2]; [8],"0.0447 µM [rising, partial curve, poor fit]"
same,AC50,[2]; [9],"0.0447 µM [rising, partial curve, poor fit]"
same,max response,[2]; [10],70.2%
same,AC50,[4]; [15],"75.7 µM [falling, single point]"
COC(=O)C1=C(C)NC(C)=C(C(=O)OC(C)C)C1c1cccc2nonc12 (stereo not drawn),max response,[2]; [7],79.9%
same,AC50,[2]; [8],"28.2 µM [rising, partial curve, poor fit]"
same,AC50,[2]; [9],"31.6 µM [rising, partial curve]"
same,max response,[2]; [10],105%
same,z-score,[3]; [11],0.485
same,z-score,[3]; [12],0.139
same,z-score,[3]; [13],-0.215
same,AC50,[3]; [14],"13.2 µM [falling, partial curve]"
CC1(C)C(=O)N(CCN2CCC(C(=O)c3ccc(F)cc3)CC2)c2ccccc21,max response,[2]; [7],3.54%
same,AC50,[2]; [8],"3.98 µM [falling, full curve, poor fit]"
same,AC50,[2]; [9],"3.98 µM [falling, full curve, poor fit]"
same,max response,[2]; [10],-1.98%
same,AC50,[4]; [16],"75.7 µM [falling, partial curve]"
same,AC50,[4]; [15],"67.5 µM [falling, partial curve, poor fit]"
same,viability change,[6],-8.37%
same,z-score,[3]; [11],0.777
same,z-score,[3]; [12],0.677
same,AC50,[3]; [17],"37.2 µM [falling, single point]"
same,z-score,[3]; [13],0.696
CNc1ncnc2c1ncn2[C@@H]1O[C@H](CO)[C@H](O)[C@H]1O,max response,[2]; [7],-58.2%
same,AC50,[2]; [8],"22.4 µM [falling, partial curve, poor fit]"
same,AC50,[2]; [9],"20 µM [falling, partial curve, poor fit]"
same,max response,[2]; [10],-60.6%
same,AC50,[4]; [15],"84.9 µM [falling, single point]"
COC(=O)c1c(-c2cc(OC)c(OC)c(OC)c2)c2ccnc(OCc3ncccn3)c2c(=O)n1Cc1ccnc(C)c1,max response,[2]; [7],85.1% and 51.2%
same,AC50,[2]; [8],"25.1 µM [rising, partial curve, poor fit]"
same,AC50,[2]; [9],"28.2 µM [rising, partial curve]"
same,max response,[2]; [10],109% and 52.4%
same,AC50,[4]; [15],"84.9 µM [falling, single point]"
CNC(=O)c1cc2c(cn1)[nH]c1ccccc12,max response,[2]; [7],80.9% and 86.2%
same,AC50,[2]; [8],"1.26 µM [rising, full curve]"
same,AC50,[2]; [9],"1.26 µM [rising, full curve]"
same,max response,[2]; [10],108% and 84%
same,AC50,[4]; [15],"84.9 µM [falling, single point]"
c1ccc2nc(C3=NCCN3)ccc2c1,max response,[2]; [7],40.2% and -35.7%
same,AC50,[2]; [8],"28.2 µM [rising, partial curve, poor fit]"
same,AC50,[2]; [9],"28.2 µM [rising, partial curve, poor fit]"
same,max response,[2]; [10],48.1% and -35.3%
same,AC50,[4]; [15],"19 µM [rising, partial curve, poor fit]"
O=C(O)[C@@H]1C[C@H](C(=O)O)N1,max response,[2]; [7],-34.6%
same,AC50,[2]; [8],"0.00224 µM [falling, full curve, poor fit]"
same,AC50,[2]; [9],"0.00112 µM [falling, full curve, poor fit]"
same,max response,[2]; [10],-35.5%
same,AC50,[4]; [15],"15.1 µM [rising, single point]"
CC(C)C[C@H](N)CSSC[C@@H](N)CC(C)C,max response,[2]; [7],47%
same,AC50,[2]; [8],"39.8 µM [rising, single point]"
same,AC50,[2]; [9],"8.91 µM [falling, single point]"
same,max response,[2]; [10],51%
same,AC50,[4]; [16],"53.6 µM [falling, partial curve]"
same,AC50,[4]; [15],"53.6 µM [falling, partial curve, poor fit]"
CN1CCN2c3ccccc3Cc3ccccc3C2C1 (stereo not drawn),max response,[2]; [7],47.6%
same,AC50,[2]; [8],"35.5 µM [rising, single point]"
same,AC50,[2]; [9],"35.5 µM [rising, single point]"
same,max response,[2]; [10],48.5%
same,z-score,[3]; [11],-0.049
same,z-score,[3]; [12],0.225
same,AC50,[3]; [17],"23.5 µM [falling, single point]"
same,z-score,[3]; [13],0.362
same,AC50,[3]; [14],"14.8 µM [falling, partial curve, poor fit]"
COc1cc(CNC(=O)CCCCCCC(C)C)ccc1O,max response,[2]; [7],44.5%
same,AC50,[2]; [8],"44.7 µM [rising, single point]"
same,AC50,[2]; [9],"44.7 µM [rising, single point]"
same,max response,[2]; [10],46.7%
same,AC50,[4]; [15],"19 µM [rising, partial curve, poor fit]"
